Measured values from paper PMC3060910.
Construct, isoform or probe ends are uncertain for at least one entry. For some assays here: No signal at the amounts used counts as a negative. For some assays here: The comparison behind a weaker result is the experiment's own reference, which may not be listed here. For some assays here: At least one verdict was read from the data and is not stated in words by the source.

Chains of the proteins cited; added tags and fusions are not shown. Chains listed by the source or under a name are the forms on record and can include a tag or linker.
Lef-1 + beta-catenin, one chain, as listed by the source, chain 2 of 2: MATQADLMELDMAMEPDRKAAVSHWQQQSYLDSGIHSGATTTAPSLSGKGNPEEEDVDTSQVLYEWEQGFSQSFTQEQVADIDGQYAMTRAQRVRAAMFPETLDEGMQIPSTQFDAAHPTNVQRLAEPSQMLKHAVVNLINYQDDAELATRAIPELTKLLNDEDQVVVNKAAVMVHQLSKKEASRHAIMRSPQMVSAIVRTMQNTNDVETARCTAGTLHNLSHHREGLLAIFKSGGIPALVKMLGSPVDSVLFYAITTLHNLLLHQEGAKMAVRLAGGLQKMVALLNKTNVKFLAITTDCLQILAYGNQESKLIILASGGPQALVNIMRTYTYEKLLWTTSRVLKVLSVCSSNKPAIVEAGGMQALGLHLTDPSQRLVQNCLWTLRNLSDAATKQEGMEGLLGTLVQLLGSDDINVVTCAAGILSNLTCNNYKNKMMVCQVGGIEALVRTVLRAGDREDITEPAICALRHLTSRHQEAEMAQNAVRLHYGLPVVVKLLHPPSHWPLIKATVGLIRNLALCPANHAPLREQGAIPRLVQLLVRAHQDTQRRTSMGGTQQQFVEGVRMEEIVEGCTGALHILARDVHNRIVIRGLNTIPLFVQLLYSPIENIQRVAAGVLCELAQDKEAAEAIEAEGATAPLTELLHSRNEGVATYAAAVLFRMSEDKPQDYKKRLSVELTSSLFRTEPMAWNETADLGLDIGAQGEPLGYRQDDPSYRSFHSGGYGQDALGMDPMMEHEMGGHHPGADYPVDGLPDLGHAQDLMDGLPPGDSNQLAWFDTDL
Lef-1 + beta-catenin, one chain, as listed by the source, chain 1 of 2: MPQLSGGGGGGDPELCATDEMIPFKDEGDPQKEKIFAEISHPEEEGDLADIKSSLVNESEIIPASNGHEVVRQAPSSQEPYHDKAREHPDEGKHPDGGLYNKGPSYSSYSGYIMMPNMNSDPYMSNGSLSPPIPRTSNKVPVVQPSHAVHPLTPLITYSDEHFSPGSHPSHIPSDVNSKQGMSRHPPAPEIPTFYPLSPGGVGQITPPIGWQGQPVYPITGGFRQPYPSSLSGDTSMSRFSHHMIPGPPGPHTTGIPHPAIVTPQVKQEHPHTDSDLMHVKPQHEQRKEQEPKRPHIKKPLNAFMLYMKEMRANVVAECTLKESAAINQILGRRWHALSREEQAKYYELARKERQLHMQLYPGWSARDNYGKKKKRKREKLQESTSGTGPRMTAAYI

Columns and labels:
Lef-1 + beta-catenin [1] = test: competition with a labelled probe; details: 10 mM Hepes, 70 mM KCl, 1 mM DTT, 1 mM EDTA, 7.5 mM MgCl2, 4% glycerol, 8 ug/ml salmon sperm DNA, 50 fmol 32P probe, 30 min, protein translated in vitro
Lef-1 + beta-catenin [2] = test: EMSA; details: 10 mM Hepes, 70 mM KCl, 1 mM DTT, 1 mM EDTA, 7.5 mM MgCl2, 4% glycerol, 8 ug/ml salmon sperm DNA; 50 fmol 32P probe, 30 min; protein translated in vitro; label: 32P (probe), unlabeled as competitor

Row | Sequence | binding result (Lef-1 + beta-catenin [1]; 300x excess vs CD1TOP) | other results
1 | ATCAAGACCAAAGCGGAAAGAAAA (double strand) [Hes-1 -528] | – | binding result (Lef-1 + beta-catenin [1]; vs CD1TOP): binds
2 | TGTCCACCCTTCAAAGGAAGTCGAT (double strand) [Jagged-1 -1635] | binds | –
3 | CCTTGGTAGCTTTGAACCTATGTAA (double strand) [Jagged-1 -1933] | binds | –
4 | TCCCCTTGGAATCAAAGCCCTGCAT (double strand) [Rfng -2481] | – | binding result (Lef-1 + beta-catenin [1]; vs CD1TOP, only Rfng site tested): binds
5 | CCTTGGTAGGTGTCGACCTATGTAA (double strand) [Jagged-1 -1933 mutated] | no binding | –
6 | GGCCTGAGCCTTTGAAGCAGGAGGA (double strand) [Notch-2 -110] | binds | –
7 | CAGAAATACAAAGAGTCCTGTGTGA (double strand) [Notch-2 -2261] | – | binding result (Lef-1 + beta-catenin [1]; vs CD1TOP): binds more weakly
8 | GGCCTGAGCGTGTCGAGCAGGAGGA (double strand) [Notch-2 -110 mutated] | no binding | –
9 | TTTCCTTCTTTGACAGCACTGGT (double strand) [Notch-2 -689] | – | binding result (Lef-1 + beta-catenin [1]; vs CD1TOP): binds more weakly
10 | TGTCCACCCTCGACACGAAGTCGAT (double strand) [Jagged-1 -1635 mutated] | no binding | –
11 | CTCTGCCGGGCTTTGATCTTTGCTTAACAACA (double strand) [CD1TOP (cyclin D1 TOP)] | – | binding result (Lef-1 + beta-catenin [2]): binds
